Literature values in patent US20260069590A1, “METHOD FOR TREATING NONTUBERCULOUS MYCOBACTERIAL INFECTION” (priority 2022, published 2026).
At least one read-out could not be matched to a standard name with certainty.

Conditions: BCS class II drug; cited from earlier work

Question: For CC(C)/N=c1\cc2n(-c3ccc(Cl)cc3)c3ccccc3nc-2cc1Nc1ccc(Cl)cc1 [Clofazimine, N,5-bis(4-chlorophenyl)-3-propan-2-yliminophenazin-2-amine], which membrane permeability is on record?
Answer: The membrane permeability was “high membrane permeability”.
